{"source": "patent US20230183661A1", "about": "“BICOMPATIBLE PEPTIDEBIOCOMPATIBLE PEPTIDES FOR INHIBITION OF AGGREGATION OF B-AMYLOID PROTEIN” (Catholic University Industry Academic Cooperation Foundation, priority 2017, published 2023)", "tested_on": "nerve cells (N2a)", "assay": "Self-aggregate formation of peptide overexpressed in nerve cells (N2a), immunofluorescence", "assay_type": "cell-based, mouse", "conditions": "FIG. 4", "procedure": "Twenty-four hours after the transfection, N2a cells were incubated in a 4% paraformaldehyde fixation solution for 15 minutes. The cells were washed with PBS three times, and incubated in a 50 mM NH4Cl/PBS quenching solution for 10 minutes.\nSubsequently, the cells were washed with PBS three times, and incubated in a 0.1% Triton X-100/PBS solution for 5 minutes. The cells were then treated and incubated with 2% FBS/blocking buffer at room temperature for 1 hour. The cells were then treated and incubated with FLAG antibodies diluted 1/100 at room temperature for 2 hours, washed with PBS three times, and then treated and incubated with a goat anti-mouse Alexa Fluor®-red 594 dye.\nThe sample was washed with PBS three times, and mounted on a glass slide using a FluoroGuard Antifade reagent (Bio-Rad Laboratories, Inc.). A fluorescent image was obtained using a confocal laser scanning microscope (Zeiss LSM 510 Meta, Carl Zeiss AG), and processed using Adobe® Photoshop®, and a fluorescence signal intensity was measured using a ZEN 2009 Light Edition software program.\nTo identify whether a self-aggregate of the peptide (NABi) of the present invention was formed, the peptide of the present invention was overexpressed in nerve cells (N2a), and then measured by an immunofluorescence method.", "data": [{"substance": "G93A: SOD1 mutant in which the 93th amino acid glycine was changed to alanine; aggregation and apoptosis comparator [Peptide G93A, reference compound]", "values": [{"measurement": "Nerve cells with protein aggregates", "value": "≥ 60", "unit": "%"}]}]}
